Test results from patent US20110038885A1 (priority 2007, published 2011).
Bridge positions count the residues as written; N and C are the ends. Square brackets hold non-standard residues; d marks the D form. * marks the point of attachment. 1Naphthoyl = O=C(c1cccc2ccccc12)*; 2Naphthoyl = O=C(c1ccc2ccccc2c1)*; Ac6c = NC1(C(=O)O)CCCCC1; dDap = NC[C@@H](N)C(=O)O; Dab = NCC[C@H](N)C(=O)O

Test: general procedure: Fmoc solid-phase peptide synthesis; Rink Amide MBHA resin (0.58 mmol/g or 0.78 mmol/g); Wang resin for C-terminal acids; DIC/HOBt
Conditions: whole synthesis, analytical HPLC, scale of the general procedure 0.090 mmol

Row | Substance | purity (crude or final not stated) [%]
1 | 1Naphthoyl-CKWIQC-NH2 (disulfide 1-6; SMILES CC[C@H](C)[C@@H]1NC(=O)[C@H](Cc2c[nH]c3ccccc23)NC(=O)[C@H](CCCCN)NC(=O)[C@@H](NC(=O)c2cccc3ccccc23)CSSC[C@@H](C(N)=O)NC(=O)[C@H](CCC(N)=O)NC1=O) | 99
2 | 2Naphthoyl-CKWIQC-NH2 (disulfide 1-6; SMILES CC[C@H](C)[C@@H]1NC(=O)[C@H](Cc2c[nH]c3ccccc23)NC(=O)[C@H](CCCCN)NC(=O)[C@@H](NC(=O)c2ccc3ccccc3c2)CSSC[C@@H](C(N)=O)NC(=O)[C@H](CCC(N)=O)NC1=O) | 95
3 | Ac-CKQKWIQC[dP][dD][dL]-NH2 (disulfide 1-8; SMILES CC[C@H](C)[C@@H]1NC(=O)[C@H](Cc2c[nH]c3ccccc23)NC(=O)[C@H](CCCCN)NC(=O)[C@H](CCC(N)=O)NC(=O)[C@H](CCCCN)NC(=O)[C@@H](NC(C)=O)CSSC[C@@H](C(=O)N2CCC[C@@H]2C(=O)N[C@H](CC(=O)O)C(=O)N[C@H](CC(C)C)C(N)=O)NC(=O)[C@H](CCC(N)=O)NC1=O) | 82.1
4 | Ac-CKWIQC-NH2 (disulfide 1-6; SMILES CC[C@H](C)[C@@H]1NC(=O)[C@H](Cc2c[nH]c3ccccc23)NC(=O)[C@H](CCCCN)NC(=O)[C@@H](NC(C)=O)CSSC[C@@H](C(N)=O)NC(=O)[C@H](CCC(N)=O)NC1=O) | 94.3
5 | Ac-CKWIQ[dC]-NH2 (disulfide 1-6; SMILES CC[C@H](C)[C@@H]1NC(=O)[C@H](Cc2c[nH]c3ccccc23)NC(=O)[C@H](CCCCN)NC(=O)[C@@H](NC(C)=O)CSSC[C@H](C(N)=O)NC(=O)[C@H](CCC(N)=O)NC1=O) | 91
6 | Ac-CKWI[dQ]C-NH2 (disulfide 1-6; SMILES CC[C@H](C)[C@@H]1NC(=O)[C@H](Cc2c[nH]c3ccccc23)NC(=O)[C@H](CCCCN)NC(=O)[C@@H](NC(C)=O)CSSC[C@@H](C(N)=O)NC(=O)[C@@H](CCC(N)=O)NC1=O) | 99
7 | Ac-CKW[dI]QC-NH2 (disulfide 1-6; SMILES CC[C@@H](C)[C@H]1NC(=O)[C@H](Cc2c[nH]c3ccccc23)NC(=O)[C@H](CCCCN)NC(=O)[C@@H](NC(C)=O)CSSC[C@@H](C(N)=O)NC(=O)[C@H](CCC(N)=O)NC1=O) | 99
8 | Ac-CK[dW]IQC-NH2 (disulfide 1-6; SMILES CC[C@H](C)[C@@H]1NC(=O)[C@@H](Cc2c[nH]c3ccccc23)NC(=O)[C@H](CCCCN)NC(=O)[C@@H](NC(C)=O)CSSC[C@@H](C(N)=O)NC(=O)[C@H](CCC(N)=O)NC1=O) | 97
9 | Ac-CLDPKQKWIQC-NH2 (disulfide 1-11; SMILES CC[C@H](C)[C@@H]1NC(=O)[C@H](Cc2c[nH]c3ccccc23)NC(=O)[C@H](CCCCN)NC(=O)[C@H](CCC(N)=O)NC(=O)[C@H](CCCCN)NC(=O)[C@@H]2CCCN2C(=O)[C@H](CC(=O)O)NC(=O)[C@H](CC(C)C)NC(=O)[C@@H](NC(C)=O)CSSC[C@@H](C(N)=O)NC(=O)[C@H](CCC(N)=O)NC1=O) | 99
10 | Ac-CLDPKQKWIQC[Dab]-NH2 (disulfide 1-11; SMILES CC[C@H](C)[C@@H]1NC(=O)[C@H](Cc2c[nH]c3ccccc23)NC(=O)[C@H](CCCCN)NC(=O)[C@H](CCC(N)=O)NC(=O)[C@H](CCCCN)NC(=O)[C@@H]2CCCN2C(=O)[C@H](CC(=O)O)NC(=O)[C@H](CC(C)C)NC(=O)[C@@H](NC(C)=O)CSSC[C@@H](C(=O)N[C@@H](CCN)C(N)=O)NC(=O)[C@H](CCC(N)=O)NC1=O) | 98
11 | Ac-CLDPKQKWIQC[dDap]-NH2 (disulfide 1-11; SMILES CC[C@H](C)[C@@H]1NC(=O)[C@H](Cc2c[nH]c3ccccc23)NC(=O)[C@H](CCCCN)NC(=O)[C@H](CCC(N)=O)NC(=O)[C@H](CCCCN)NC(=O)[C@@H]2CCCN2C(=O)[C@H](CC(=O)O)NC(=O)[C@H](CC(C)C)NC(=O)[C@@H](NC(C)=O)CSSC[C@@H](C(=O)N[C@H](CN)C(N)=O)NC(=O)[C@H](CCC(N)=O)NC1=O) | 99
12 | Ac-CLDPKQKWI[dQ]C-NH2 (disulfide 1-11; SMILES CC[C@H](C)[C@@H]1NC(=O)[C@H](Cc2c[nH]c3ccccc23)NC(=O)[C@H](CCCCN)NC(=O)[C@H](CCC(N)=O)NC(=O)[C@H](CCCCN)NC(=O)[C@@H]2CCCN2C(=O)[C@H](CC(=O)O)NC(=O)[C@H](CC(C)C)NC(=O)[C@@H](NC(C)=O)CSSC[C@@H](C(N)=O)NC(=O)[C@@H](CCC(N)=O)NC1=O) | 86.5
13 | Ac-CLDPKQKW[Ac6c]QC-NH2 (disulfide 1-11; SMILES CC(=O)N[C@H]1CSSC[C@@H](C(N)=O)NC(=O)[C@H](CCC(N)=O)NC(=O)C2(CCCCC2)NC(=O)[C@H](Cc2c[nH]c3ccccc23)NC(=O)[C@H](CCCCN)NC(=O)[C@H](CCC(N)=O)NC(=O)[C@H](CCCCN)NC(=O)[C@@H]2CCCN2C(=O)[C@H](CC(=O)O)NC(=O)[C@H](CC(C)C)NC1=O) | 95.2
14 | Ac-CLDPKQKW[dI]QC-NH2 (disulfide 1-11; SMILES CC[C@@H](C)[C@H]1NC(=O)[C@H](Cc2c[nH]c3ccccc23)NC(=O)[C@H](CCCCN)NC(=O)[C@H](CCC(N)=O)NC(=O)[C@H](CCCCN)NC(=O)[C@@H]2CCCN2C(=O)[C@H](CC(=O)O)NC(=O)[C@H](CC(C)C)NC(=O)[C@@H](NC(C)=O)CSSC[C@@H](C(N)=O)NC(=O)[C@H](CCC(N)=O)NC1=O) | 94.3
15 | Ac-CLDPKQK[dW]IQC-NH2 (disulfide 1-11; SMILES CC[C@H](C)[C@@H]1NC(=O)[C@@H](Cc2c[nH]c3ccccc23)NC(=O)[C@H](CCCCN)NC(=O)[C@H](CCC(N)=O)NC(=O)[C@H](CCCCN)NC(=O)[C@@H]2CCCN2C(=O)[C@H](CC(=O)O)NC(=O)[C@H](CC(C)C)NC(=O)[C@@H](NC(C)=O)CSSC[C@@H](C(N)=O)NC(=O)[C@H](CCC(N)=O)NC1=O) | 88.2
16 | Ac-CLDPKQ[dK]WIQC-NH2 (disulfide 1-11; SMILES CC[C@H](C)[C@@H]1NC(=O)[C@H](Cc2c[nH]c3ccccc23)NC(=O)[C@@H](CCCCN)NC(=O)[C@H](CCC(N)=O)NC(=O)[C@H](CCCCN)NC(=O)[C@@H]2CCCN2C(=O)[C@H](CC(=O)O)NC(=O)[C@H](CC(C)C)NC(=O)[C@@H](NC(C)=O)CSSC[C@@H](C(N)=O)NC(=O)[C@H](CCC(N)=O)NC1=O) | 89.6
17 | Ac-CLDPK[dQ]KWIQC-NH2 (disulfide 1-11; SMILES CC[C@H](C)[C@@H]1NC(=O)[C@H](Cc2c[nH]c3ccccc23)NC(=O)[C@H](CCCCN)NC(=O)[C@@H](CCC(N)=O)NC(=O)[C@H](CCCCN)NC(=O)[C@@H]2CCCN2C(=O)[C@H](CC(=O)O)NC(=O)[C@H](CC(C)C)NC(=O)[C@@H](NC(C)=O)CSSC[C@@H](C(N)=O)NC(=O)[C@H](CCC(N)=O)NC1=O) | 90
18 | Ac-CLDP[dK]QKWIQC-NH2 (disulfide 1-11; SMILES CC[C@H](C)[C@@H]1NC(=O)[C@H](Cc2c[nH]c3ccccc23)NC(=O)[C@H](CCCCN)NC(=O)[C@H](CCC(N)=O)NC(=O)[C@@H](CCCCN)NC(=O)[C@@H]2CCCN2C(=O)[C@H](CC(=O)O)NC(=O)[C@H](CC(C)C)NC(=O)[C@@H](NC(C)=O)CSSC[C@@H](C(N)=O)NC(=O)[C@H](CCC(N)=O)NC1=O) | 79.1
19 | Ac-CLD[dP]KQKWIQC-NH2 (disulfide 1-11; SMILES CC[C@H](C)[C@@H]1NC(=O)[C@H](Cc2c[nH]c3ccccc23)NC(=O)[C@H](CCCCN)NC(=O)[C@H](CCC(N)=O)NC(=O)[C@H](CCCCN)NC(=O)[C@H]2CCCN2C(=O)[C@H](CC(=O)O)NC(=O)[C@H](CC(C)C)NC(=O)[C@@H](NC(C)=O)CSSC[C@@H](C(N)=O)NC(=O)[C@H](CCC(N)=O)NC1=O) | 88.8
20 | Ac-CL[dD]PKQKWIQC-NH2 (disulfide 1-11; SMILES CC[C@H](C)[C@@H]1NC(=O)[C@H](Cc2c[nH]c3ccccc23)NC(=O)[C@H](CCCCN)NC(=O)[C@H](CCC(N)=O)NC(=O)[C@H](CCCCN)NC(=O)[C@@H]2CCCN2C(=O)[C@@H](CC(=O)O)NC(=O)[C@H](CC(C)C)NC(=O)[C@@H](NC(C)=O)CSSC[C@@H](C(N)=O)NC(=O)[C@H](CCC(N)=O)NC1=O) | 92.1
21 | Ac-CPKQKWIQC[dD][dL]-NH2 (disulfide 1-9; SMILES CC[C@H](C)[C@@H]1NC(=O)[C@H](Cc2c[nH]c3ccccc23)NC(=O)[C@H](CCCCN)NC(=O)[C@H](CCC(N)=O)NC(=O)[C@H](CCCCN)NC(=O)[C@@H]2CCCN2C(=O)[C@@H](NC(C)=O)CSSC[C@@H](C(=O)N[C@H](CC(=O)O)C(=O)N[C@H](CC(C)C)C(N)=O)NC(=O)[C@H](CCC(N)=O)NC1=O) | 90.5
22 | Ac-C[Ac6c]DPKQKWQC-NH2 (disulfide 1-10; SMILES CC(=O)N[C@H]1CSSC[C@@H](C(N)=O)NC(=O)[C@H](CCC(N)=O)NC(=O)[C@H](Cc2c[nH]c3ccccc23)NC(=O)[C@H](CCCCN)NC(=O)[C@H](CCC(N)=O)NC(=O)[C@H](CCCCN)NC(=O)[C@@H]2CCCN2C(=O)[C@H](CC(=O)O)NC(=O)C2(CCCCC2)NC1=O) | 94
23 | Ac-C[dK]WIQC-NH2 (disulfide 1-6; SMILES CC[C@H](C)[C@@H]1NC(=O)[C@H](Cc2c[nH]c3ccccc23)NC(=O)[C@@H](CCCCN)NC(=O)[C@@H](NC(C)=O)CSSC[C@@H](C(N)=O)NC(=O)[C@H](CCC(N)=O)NC1=O) | 99
24 | Ac-C[dL]DPKQKWIQC-NH2 (disulfide 1-11; SMILES CC[C@H](C)[C@@H]1NC(=O)[C@H](Cc2c[nH]c3ccccc23)NC(=O)[C@H](CCCCN)NC(=O)[C@H](CCC(N)=O)NC(=O)[C@H](CCCCN)NC(=O)[C@@H]2CCCN2C(=O)[C@H](CC(=O)O)NC(=O)[C@@H](CC(C)C)NC(=O)[C@@H](NC(C)=O)CSSC[C@@H](C(N)=O)NC(=O)[C@H](CCC(N)=O)NC1=O) | 85.2
25 | Ac-DCLDPKQKWIQC[dDap]-NH2 (disulfide 2-12; SMILES CC[C@H](C)[C@@H]1NC(=O)[C@H](Cc2c[nH]c3ccccc23)NC(=O)[C@H](CCCCN)NC(=O)[C@H](CCC(N)=O)NC(=O)[C@H](CCCCN)NC(=O)[C@@H]2CCCN2C(=O)[C@H](CC(=O)O)NC(=O)[C@H](CC(C)C)NC(=O)[C@@H](NC(=O)[C@H](CC(=O)O)NC(C)=O)CSSC[C@@H](C(=O)N[C@H](CN)C(N)=O)NC(=O)[C@H](CCC(N)=O)NC1=O) | 97.7
